# PubChem BioAssay AID686938 – Drosophila RNAi Screening Center – 2013
# Screen: 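Knock-downs reducing store-operated calcium influx in Drosophila cells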 (primary screen)
# Cell system: Drosophila S2R+ cells
# Knock-down reagent: long dsRNA against Drosophila genes, about 0.25 µg dsRNA per well, roughly 10,000 cells
# Timing: 5 days of knock-down before the calcium assay
# Challenge: thapsigargin (SERCA pump blocker) to empty calcium stores; entry signal taken 4 min after adding it
# Measured: 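Duplicate raw fluo-4 intensities per well from a plate reader, at rest and four minutes after thapsigargin emptied calcium stores; entry-to-rest ratio filled for only some wells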
# Direction: calcium entry signal: higher = stronger calcium signal after store depletion; resting calcium signal: higher = higher resting calcium signal
# Active means: 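Hit if the duplicate-averaged plate z-score for entry over resting signal is under −3; wells with weak total dye signal (Fmax z < −2) or more than 5 off-targets removed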
# Calls: active = strongly reduced calcium entry; inactive = no strong reduction
# In all, the deposit lists about 23,000 reagents; below is a random part of those with a known target gene and a result. In the full data, 75 (0.33%) got an active call. 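Raw plate signals without normalisation; calls rest on plate z-scores that were not deposited; ratio present for only 364 wells.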 Not given: the dose of the treatment.
gene,PubChem SID,"calcium entry signal, replicate 1 (fluorescence units)","calcium entry signal, replicate 2 (fluorescence units)","resting calcium signal, replicate 1 (fluorescence units)","resting calcium signal, replicate 2 (fluorescence units)",outcome
CG32588,SID104201801,2.83e7,4.26e7,1.43e7,2.42e7,inactive
RpLP0-like (Ribosomal protein LP0-like),SID104186216,4.37e7,3.71e7,1.97e7,1.82e7,inactive
CG15631,SID104180258,3.10e7,3.34e7,1.52e7,1.52e7,inactive
pnut (peanut),SID104187458,4.39e7,4.26e7,1.94e7,2.12e7,inactive
wol (wollknaeuel),SID104182869,5.57e7,,2.51e7,,inactive
Ppcs (Phosphopantothenoylcysteine synthetase),SID104193919,3.03e7,2.28e7,1.40e7,1.11e7,inactive
Cfp1 (CXXC finger protein 1),SID104197920,3.33e7,3.81e7,1.70e7,1.96e7,inactive
CG12729,SID104197676,3.40e7,3.64e7,1.65e7,1.75e7,inactive
TwdlN (TweedleN),SID104195605,1.92e7,3.13e7,1.08e7,1.39e7,inactive
Obp83ef (Odorant-binding protein 83ef),SID104192060,5.09e7,3.39e7,2.44e7,1.69e7,inactive
crim (crimpled),SID104190365,4.19e7,2.89e7,3.04e7,1.38e7,inactive
Mfap1 (Microfibril-associated protein 1),SID104187946,3.05e7,2.75e7,1.87e7,1.66e7,inactive
dob (doppelganger von brummer),SID104199740,3.41e7,3.85e7,1.63e7,1.82e7,inactive
CG4218,SID104181731,5.12e7,3.17e7,2.29e7,1.50e7,inactive
Dnaaf6 (Dynein axonemal assembly factor 6),SID104190265,3.56e7,4.77e7,1.66e7,1.87e7,inactive
UK114,SID104181765,3.58e7,2.92e7,1.69e7,1.28e7,inactive
por (porcupine),SID104200154,3.99e7,3.28e7,1.92e7,1.51e7,inactive
Tsp42Ea (Tetraspanin 42Ea),SID104184774,3.98e7,3.48e7,1.72e7,1.52e7,inactive
Tsp42Ea (Tetraspanin 42Ea),SID104186584,3.32e7,3.64e7,1.51e7,1.61e7,inactive
zfh2 (Zn finger homeodomain 2),SID104196970,2.85e7,3.09e7,1.61e7,1.60e7,inactive
Cyp4ac2 (Cytochrome P450 4ac2),SID104183095,3.46e7,3.45e7,1.60e7,1.69e7,inactive
CG17029,SID104190032,3.81e7,6.01e7,2.08e7,2.44e7,inactive
Tlk (Tousled-like kinase),SID104197073,3.36e7,3.33e7,1.74e7,1.35e7,inactive
Tlk (Tousled-like kinase),SID104197523,2.15e7,2.42e7,1.03e7,1.08e7,inactive
Tlk (Tousled-like kinase),SID104197627,1.37e7,2.39e7,8.86e6,1.18e7,inactive
Tlk (Tousled-like kinase),SID104202281,3.31e7,3.75e7,1.66e7,1.78e7,inactive
Tlk (Tousled-like kinase),SID104202283,2.39e7,2.11e7,1.26e7,1.05e7,inactive
Tlk (Tousled-like kinase),SID104202295,4.13e7,3.69e7,2.05e7,1.55e7,inactive
Tlk (Tousled-like kinase),SID104202520,3.59e7,2.00e7,2.07e7,1.01e7,inactive
CG1965,SID104192369,5.87e7,5.17e7,2.10e7,2.34e7,inactive
CG1965,SID104201477,4.08e7,3.60e7,2.27e7,1.66e7,inactive
Sgs8 (Salivary gland secretion 8),SID104191074,2.47e7,3.74e7,1.36e7,1.68e7,inactive
ninaC (neither inactivation nor afterpotential C),SID104183371,4.00e7,,2.14e7,,inactive
CG14683,SID104196827,3.74e7,4.98e7,1.53e7,2.02e7,inactive
Nazo,SID104194135,3.98e7,4.59e7,2.00e7,2.29e7,inactive
ebo (ellipsoid body open),SID104198579,3.58e7,4.29e7,1.67e7,1.90e7,inactive
CG1142,SID104192323,5.77e7,4.96e7,2.46e7,2.11e7,inactive
Doc2 (Dorsocross2),SID104202098,3.42e7,2.76e7,1.86e7,1.31e7,inactive
Letm1,SID104184268,2.92e7,,1.72e7,,inactive
CG17601,SID104200431,5.09e7,4.84e7,2.37e7,1.95e7,inactive
fzy (fizzy),SID104183326,3.40e7,2.77e7,2.24e7,1.58e7,inactive
5-HT2A (5-hydroxytryptamine (serotonin) receptor 2A),SID104191782,3.49e7,4.60e7,1.61e7,3.06e7,inactive
RacGAP84C (Rac GTPase activating protein at 84C),SID104192422,4.39e7,3.59e7,2.12e7,1.73e7,inactive
CG9784,SID104200002,2.76e7,2.48e7,1.43e7,1.22e7,inactive
v (vermilion),SID104200175,2.39e7,2.86e7,1.16e7,1.32e7,inactive
CG31642,SID104182711,4.69e7,,2.39e7,,inactive
mil (milkah),SID104195488,2.69e7,4.60e7,1.39e7,1.95e7,inactive
CG30288,SID104201596,2.36e7,4.74e7,1.19e7,2.39e7,inactive
Cpr78Ca (Cuticular protein 78Ca),SID104191443,2.09e7,3.57e7,1.01e7,1.54e7,inactive
CG14020,SID104182142,2.18e7,2.46e7,1.11e7,1.05e7,inactive
btv (beethoven),SID104181407,2.91e7,4.51e7,1.66e7,1.92e7,inactive
btv (beethoven),SID104182241,4.57e7,3.36e7,1.95e7,1.56e7,inactive
Ice1 (Interacts with the C terminus of ELL 1),SID104183983,1.84e7,1.87e7,1.12e7,1.02e7,inactive
CG14120,SID104189916,3.11e7,4.64e7,1.58e7,1.89e7,inactive
CG42329,SID104180165,3.32e7,4.02e7,1.66e7,1.85e7,inactive
CG42329,SID104180474,2.99e7,3.53e7,1.53e7,1.57e7,inactive
CG32243,SID104187897,3.71e7,4.08e7,1.67e7,1.75e7,inactive
Osbp (Oxysterol binding protein),SID104196571,4.32e7,4.48e7,2.01e7,2.06e7,inactive
CG13053,SID104189726,2.99e7,5.22e7,1.61e7,2.26e7,inactive
CG13116,SID104182006,2.85e7,2.96e7,1.39e7,1.45e7,inactive
CG13116,SID104201560,3.50e7,3.58e7,2.19e7,1.76e7,inactive
CG16736,SID104194937,4.07e7,4.11e7,2.00e7,1.79e7,inactive
alc (alicorn),SID104186854,5.23e7,3.70e7,2.33e7,1.72e7,inactive
alc (alicorn),SID104201202,2.58e7,3.50e7,1.46e7,1.65e7,inactive
alc (alicorn),SID104202673,6.05e7,4.43e7,2.96e7,2.35e7,inactive
Iyd (Iodotyrosine deiodinase),SID104190406,3.09e7,3.66e7,1.52e7,1.73e7,inactive
Iyd (Iodotyrosine deiodinase),SID104190407,2.86e7,3.68e7,1.45e7,1.74e7,inactive
CG33136,SID104185536,3.14e7,4.22e7,1.36e7,2.09e7,inactive
MtnF (Metallothionein F),SID104193475,4.56e7,3.98e7,1.94e7,2.09e7,inactive
CR31958 (pseudo),SID104180074,3.71e7,3.34e7,1.80e7,1.46e7,inactive
CR31958 (pseudo),SID104201499,2.17e7,4.13e7,1.14e7,1.87e7,inactive
Eig71Ej,SID104190949,4.58e7,6.05e7,2.16e7,2.59e7,inactive
borr (borealin-related),SID104182541,2.71e7,,1.95e7,,inactive
Pop4 (POP4 ribonuclease P/MRP subunit),SID104190747,3.50e7,4.22e7,1.64e7,1.75e7,inactive
puml (pummelig),SID104186585,2.47e7,3.12e7,1.19e7,1.31e7,inactive
